# Data as given in PubChem BioAssay AID743121 (NCATS, 2013).
# Test: 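Partners whose loss is lethal together with topoisomerase I blockade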 (primary screen)
# Cell system: MDA-MB-231 cells, a human breast cancer line
# Knock-down reagent: single siRNA against human genes, 20 nM siRNA (0.8 pmol per well)
# Time to read-out: 120 h (drug added 48 h after transfection, read 72 h later)
# Challenge: camptothecin 20 nM (about EC30) for 72 h; vehicle 0.1% DMSO in parallel plates
# Measurement: 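Cell viability by ATP luminescence (CellTiter-Glo) as % of non-targeting siRNA wells, and the log2 ratio of viability without drug over viability with camptothecin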
# Reading the numbers: log2 vehicle/camptothecin viability: higher = stronger sensitisation to camptothecin; viability with camptothecin and viability without drug: higher = more viable cells
# Active means: 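Each gene scored by redundant siRNA activity (RSA) over its individual siRNA ratios; a gene is called active at p < 0.001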
# Here is an unselected part of about 26,000 deposited reagents. Of all reagents, 167 (0.63%) were called active. 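Calls are per gene from RSA p-values that are not deposited; an individual active-marked siRNA can sensitise only weakly.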 Entries without a mark were called inactive. The numbers tell different reagents against one gene apart.
gene,reagent no.,log2 vehicle/camptothecin viability,viability with camptothecin (% of control),viability without drug (% of control)
RNFT1,1,-0.0907,105,98.8
RNFT1,2,-0.33,76.4,60.7
RNFT1,3,-0.04,64.5,62.7
RNFT1,4,-0.16,101,90.2
MTTP,1,0.899,29.8,55.7
MTTP,2,-0.0504,104,101
MTTP,3,0.0606,60.6,63.2
MTTP,4,0.069,87.7,92
AFDN,1,0.237,30.5,35.9
AFDN,2,0,94.4,94.4
AFDN,3,-0.473,96.2,69.3
AFDN,4,-0.395,45.5,34.6
FOXG1,1,-0.403,104,79
FOXG1,2,-0.368,70,54.2
FOXG1,3,-0.068,78.9,75.3
FOXG1,4,0.0525,92.8,96.3
ZFAND4,1,-0.527,86.7,60.1
ZFAND4,2,0.0852,91.8,97.4
ZFAND4,3,0.0909,62.3,66.4
TRPC5,1,-0.28,21.9,18.1
TRPC5,2,-0.101,76.9,71.7
TRPC5,3,-0.0103,54.2,53.8
PDE11A,1,-0.143,103,92.9
PDE11A,2,-0.151,102,92.3
PDE11A,3,0.0454,84.4,87.1
PDE11A,4,0.0193,42,42.6
BCL2,1,-0.336,75.1,59.5
BCL2,2,-0.344,82.2,64.8
BCL2,3,-0.349,111,87
BCL2,4,-0.0457,92.9,90
GRIN2C,1,0.482,25.7,35.9
GRIN2C,2,-0.0173,83.1,82.2
GRIN2C,3,-0.114,75.6,69.8
GRIN2C,4,-0.526,100,69.6
HRK,1,-0.223,77.7,66.6
HRK,2,-0.123,62.2,57.2
HRK,3,-0.553,37.5,25.6
HRK,4,-0.216,77.4,66.6
KCNA1,1,-0.129,74.6,68.2
KCNA1,2,-0.0904,97.7,91.7
KCNA1,3,-0.621,101,65.4
KCNA1,4,0.0872,96.8,103
DPP8,1,-0.428,47.4,35.2
DPP8,2,-0.103,96.5,89.9
DPP8,3,-0.144,124,112
DPP8,4,-0.102,108,101
